Experimental data taken from article PMC5001721.

Chains of the proteins cited; added tags and fusions are not shown.
UniProt P9WNM1: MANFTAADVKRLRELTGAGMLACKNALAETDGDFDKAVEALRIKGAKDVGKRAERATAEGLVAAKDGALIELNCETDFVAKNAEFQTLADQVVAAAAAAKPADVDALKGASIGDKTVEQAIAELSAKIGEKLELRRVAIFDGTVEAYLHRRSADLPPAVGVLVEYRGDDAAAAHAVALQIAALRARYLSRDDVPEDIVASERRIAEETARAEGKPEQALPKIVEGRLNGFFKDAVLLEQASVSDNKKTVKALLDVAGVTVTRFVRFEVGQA
UniProt P9WNN1: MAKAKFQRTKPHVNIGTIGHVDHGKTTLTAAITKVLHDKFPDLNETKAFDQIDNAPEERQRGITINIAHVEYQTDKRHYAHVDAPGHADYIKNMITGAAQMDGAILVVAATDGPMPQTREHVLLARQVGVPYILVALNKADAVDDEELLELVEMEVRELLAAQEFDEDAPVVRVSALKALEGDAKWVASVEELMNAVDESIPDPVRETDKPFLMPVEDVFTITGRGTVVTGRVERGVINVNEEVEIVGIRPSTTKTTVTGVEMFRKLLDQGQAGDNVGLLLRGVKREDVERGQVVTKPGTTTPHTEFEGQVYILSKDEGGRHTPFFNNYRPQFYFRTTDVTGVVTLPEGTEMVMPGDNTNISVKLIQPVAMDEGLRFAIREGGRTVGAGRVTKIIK
UniProt P0CE47: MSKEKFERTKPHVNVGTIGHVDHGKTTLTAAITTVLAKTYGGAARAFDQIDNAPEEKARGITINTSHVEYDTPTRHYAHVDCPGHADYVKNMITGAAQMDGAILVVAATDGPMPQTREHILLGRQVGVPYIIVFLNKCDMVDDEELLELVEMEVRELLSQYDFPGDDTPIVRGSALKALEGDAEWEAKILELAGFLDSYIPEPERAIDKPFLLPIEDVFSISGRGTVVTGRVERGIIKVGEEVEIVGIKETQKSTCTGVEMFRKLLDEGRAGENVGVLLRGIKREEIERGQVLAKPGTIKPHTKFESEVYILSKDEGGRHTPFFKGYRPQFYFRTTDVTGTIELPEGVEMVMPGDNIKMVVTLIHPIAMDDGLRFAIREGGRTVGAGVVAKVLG

Molecular target: M. tuberculosis elongation factor Ts (EF-Ts) with an N-terminal 6xHis-tag and linker (M. tuberculosis) (UniProt P9WNM1)
Test: affinity purification with mass spectrometry

Substance	binding
M. tuberculosis elongation factor Tu (EF-Tu) (from UniProt P9WNN1 1-396)	binds
E. coli EF-Tu (from UniProt P0CE47 1-394)	binds

These are yes or no findings as the source states them, for the method shown. Binding seen in cells or lysates may run through a third protein. These calls come from enrichment with a bait or labelling near it, and not all partners need be listed.
